Measured values published in patent publication US5959130A, “Castor based benzoate esters” (Finetex, Inc., priority 1997, dated 1999).
For at least one compound, name, drawing or mass did not settle the structure.

Columns and labels:
[1] = refractive index of benzoate esters compared to precursors, Table V; assay type: physicochemical; conditions: 25° C.
[2] = physical properties of benzoate esters compared to precursors, Table II; assay type: physicochemical
Excerpt: Absence of odor is an important factor in consumer acceptance of cosmetic and toiletry products.

CCCCCCC(O)CCCCCCCCCCC(=O)OCC(CC)CCCC (stereo not drawn) [OHS, octyl hydroxystearate, reference compound]
Refractive Index, Typical [1]: 1.4575 | COLOR [2]: light yellow | S.G. (specific gravity) ([2]; 25° C.): 0.883 | TITER ([2]; 25° C.): clear | VISCOSITY ([2]; Brookfield Viscometer, Spindle # 1, 10 rpm): 80 cps | REFRACTIVE INDEX ([2]; Table II): 1.4575
